Measurements: publication PMC6365566
These are yes or no findings as the source states them, for the method shown.

Target: recombinant Can f 6 protein (rCan f 6) (dog (Canis familiaris)) (UniProt H2B3G5)
Assay: AUC; sedimentation velocity (AUC-SV); sample 50 µM; 60,000 rpm; 20 °C; UV detection at 280 nm; continuous C(s) distribution model (SEDFIT); both purified

B1: recombinant Can f 6 protein (rCan f 6) (protein, UniProt H2B3G5 16-190)
chain: GSHEEENDVVKGNFDISKISGDWYSILLASDIKEKIEENGSMRVFVKDIEVLSNSSLIFTMHTKVNGKCTKISLICNKTEKDGEYDVVHDGYNLFRIIETAYEDYIIFHLNNVNQEQEFQLMELYGRKPDVSPKVKEKFVRYCQGMEIPKENILDLTQVDRCLQARQSEAAQVSSAE
binding: no binding (tested: 50 µM)
